The campaign covered roughly 400,000 compounds. About 5,500 (1.4%) were called active. The shares of active, inactive and inconclusive entries below differ from those in the screen. Calls come from the whole dose curve; as a rule, active = well fitted cell-killing curve with a large enough effect; inconclusive = small, poorly fitted or top-dose-only effect, or effect the other way; inactive = flat fitted curve, though single readings scatter. Where the call is inconclusive, the potency comes from a doubtful curve fit.
assay: qHTS assay for MDR1-selective chemotherapeutics: Primary screen using the parental adenocarcinoma cell KB-3-1; details: KB-3-1 viability, CellTiter-Glo ATP luminescence, 72 h; activity change, negative = cytotoxic: at 46.1 µM (top of the series); note: nearly all actives have a fitted effect of over 60% in size
In short: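 KB-3-1 parental drug-naive adenocarcinoma cells in DMEM/10% FBS, incubated 72 h at 37 C with pin-transferred compounds across a concentration series. Viability by CellTiter-Glo luminescence; concentration-response curves fitted after normalization.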
% is set by controls: 0 for no effect and ±100 for the full control effect; potency is the fitted concentration of half-maximal effect.

SMILES | Potency | activity change, negative = cytotoxic
COC(=O)C1=C(C(=O)OC)N2C=CC=CC2(C)C(C(=O)OC)=C1C(=O)OC (stereo not drawn) | inconclusive: 3.26 µM [cytotoxic, full curve, poor fit] | –
Cc1sc2ccccc2[n+]1C | inconclusive: 6.51 µM [rising, full curve, poor fit] | –
O=C(COc1ccccc1F)N1N=C(c2cccs2)CC1c1ccco1 (stereo not drawn) | inconclusive: 20.6 µM [cytotoxic, single point] | –
COc1ccc(CN(C)C(=O)c2ccc(OCC(=O)Nc3cccc(C(F)(F)F)c3)c(OC)c2)cc1 | inconclusive: 2.06 µM [cytotoxic, full curve, poor fit] | –
COc1ccc(-c2nc(CN3CCN(c4ncnc5ccccc45)CC3)c(C)o2)c(OC)c1 | inconclusive: 23.1 µM [cytotoxic, single point] | –
COc1ccc(-n2nc3cc(C)c(NC(=O)Cc4ccc(Cl)cc4)cc3n2)cc1 | inconclusive: 0.0052 µM [cytotoxic, full curve, poor fit] | –
C#CCOCCOCCOCCNc1nc(N2CCN(C(=O)CCCCCCCCCCNC(=O)Cn3cc(C[C@@H](C)O)nn3)CC2)nc(N2CCN(C(=O)CCCCCCCCCCNC(=O)Cn3cc(C[C@@H](C)O)nn3)CC2)n1 | inconclusive: 23.1 µM [cytotoxic, single point] | –
CC(C)OC(=O)Cn1cnc2ccc(Br)cc2c1=O | inconclusive: 29.1 µM [cytotoxic, single point] | –
CCOC(=O)CN1C(c2ccc(O)cc2)Nc2ccc(Br)cc2C1c1ccccc1 (stereo not drawn) | inconclusive: 29.1 µM [cytotoxic, single point] | –
Cc1cccc2cc(CN(CC3CCCO3)C(c3nnnn3Cc3ccco3)C(C)C)c(=O)[nH]c12 (stereo not drawn) | inconclusive: 29.1 µM [cytotoxic, single point] | –
CCN(CC)c1nc(C#N)cc(-c2ccc(OC)cc2)n1 | active: 7.31 µM | –
COc1ccc(OC)c(-n2c(CN3CCC(C(N)=O)CC3)nc3ccccc3c2=O)c1 | inconclusive: 23.1 µM [rising, single point] | –
CCN(C(=O)CSc1ccc2ccccc2n1)C1CCCCC1 | inconclusive: 20.6 µM [cytotoxic, single point] | –
COc1ccc(-c2cc(C(=O)N3CCC3)c3ccccc3n2)cc1OC | inconclusive: 20.6 µM [rising, partial curve, poor fit] | –
CC(=O)N1N=C(c2c(-c3ccccc3)c3cc(C)ccc3[nH]c2=O)CC1c1ccco1 (stereo not drawn) | inactive | –
COC(=O)c1ccc(N=C2SCC(=O)N2C)cc1 | inactive | –
C[C@@]12C(=O)N(c3cccc(Cl)c3)C(=O)N1[C@H](c1ccc(Cl)cc1)[C@@H]1C(=O)N(C3CCCCC3)C(=O)[C@@H]12 | inconclusive: 25.9 µM [cytotoxic, single point] | –
CC(C)c1ccc(OCc2ccc(C(=O)N3CCN(c4ccccn4)CC3)cc2)cc1 | inconclusive: 23.1 µM [cytotoxic, partial curve] | –
COc1ccc2sc(-c3ccc(N(C)C)cc3)c(C#CCCO)c2c1 | inconclusive: 23.1 µM [cytotoxic, single point] | –
COc1ccccc1C1CC(=O)NC(C)=C1C(=O)OCC(C)C (stereo not drawn) | inconclusive: 6.51 µM [cytotoxic, partial curve, poor fit] | –
C=CCn1c(SCC(=O)Nc2cc3oc4ccccc4c3cc2OC)nnc1-c1cnccn1 | inconclusive: 13 µM [cytotoxic, partial curve] | –

2 entries drawn at random from those above:
SMILES | Potency | activity change, negative = cytotoxic
CC(=O)N1N=C(c2c(-c3ccccc3)c3cc(C)ccc3[nH]c2=O)CC1c1ccco1 (stereo not drawn) | inactive | –
COc1ccc(-c2cc(C(=O)N3CCC3)c3ccccc3n2)cc1OC | inconclusive: 20.6 µM [rising, partial curve, poor fit] | –

(continued)

SMILES | Potency | activity change, negative = cytotoxic
Cc1cccc(NC(=O)C2CCN(S(=O)(=O)c3ccc4c(c3)OCCCO4)CC2)n1 | inconclusive: 23.1 µM [cytotoxic, single point] | –
OCCC#Cc1ccc(CN2CCN(Cc3ccsc3)C(CCO)C2)cc1 (stereo not drawn) | inconclusive: 3.66 µM [cytotoxic, partial curve, poor fit] | –
CC(=O)Nc1cccc(C(=O)Nc2ccccc2N2CCOCC2)c1 | active: 16.4 µM | –
CCc1ccc(NC(=O)CSc2nc3ccccc3c(=O)n2CCCC(=O)NCCCN2CCOCC2)cc1 | inactive | –
COc1cccc(S(=O)(=O)NCc2ccc(C(=O)Nc3ccc(Cl)c(Cl)c3)cc2)c1 | inconclusive: 6.51 µM [cytotoxic, partial curve] | –
CSc1cccc(NC(=S)N(CCCN2CCCC2)Cc2cccs2)c1 | inactive | –
O=C(Nc1nc2ccc(F)cc2s1)c1nc(S(=O)(=O)Cc2ccccc2F)ncc1Cl | inconclusive: 29.1 µM [cytotoxic, partial curve, poor fit] | –
COc1ccc(C(=O)/C=C/c2cn(CN3CCN(C)CC3)c3ccccc23)cc1 | inconclusive: 32.6 µM [cytotoxic, partial curve, poor fit] | –
Cc1ccc(Sc2nc(C)c([N+](=O)[O-])c(C)c2C#N)cc1 | inactive | –
O=C(CSc1cn(CCNC(=O)c2cccc(C(F)(F)F)c2)c2ccccc12)Nc1ccc2c(c1)OCCO2 | inconclusive: 29.1 µM [cytotoxic, single point] | –
CSc1ncc(C(=O)NCc2ccc(C)cc2)c(C)n1 | inactive | –
COC(=O)c1ccc(N(CC(=O)NC2CCCCC2)C(=O)CNC(=O)c2ccco2)cc1 | – | inconclusive: 1.09%
Cc1nn(C)cc1CNC(=O)c1cc2n(n1)C(C(F)(F)F)CC(c1cccs1)N2 (stereo not drawn) | inactive | –
CCCCN(C=O)c1c(CC)nc2ccc(C(=O)Nc3cc(-c4ccccc4)ccc3OC)cn12 | inconclusive: 29.1 µM [cytotoxic, single point] | –
Cc1ccccc1C(=O)c1cccn1CC(=O)NCCCN1CC(C)CC(C)C1 (stereo not drawn) | inconclusive: 20.6 µM [cytotoxic, partial curve] | –
COC(=O)c1sc(N2C(=O)c3oc4ccccc4c(=O)c3C2c2cccs2)nc1C (stereo not drawn) | active: 18.4 µM | –
COC(=O)c1ccc2nc(-c3ccc(Cl)cc3)c(Cc3ccc(OC)cc3C)n2c1 | inconclusive: 20.6 µM [cytotoxic, single point] | –
COc1ccc(OC)c(N2C(=O)CC(Cc3cc(C)cc(C)c3)C2=O)c1 (stereo not drawn) | active: 6.51 µM | –
CCc1nnc(NC(=O)CSc2nnc3c(C)cc4c(C)ccc(C)c4n23)s1 | active: 4.11 µM | –
CC1CCC2(CC1)NC(=O)N(CC(=O)NC(=O)Nc1ccc3c(c1)OCCO3)C2=O (stereo not drawn) | inactive | –
Nc1ccc(-c2n[nH]c(=O)c3ccccc23)cc1N | inconclusive: 18.4 µM [rising, partial curve, poor fit] | –

SMILES | Potency | activity change, negative = cytotoxic
O=C(O)c1ccccc1NC(c1ccccc1)c1ccc(Cl)cc1 (stereo not drawn) | inactive | –
O=C(/C=C/c1ccc(Cl)c([N+](=O)[O-])c1)c1ccc(O)cc1 | inconclusive: 20.6 µM [cytotoxic, single point] | –
CCOc1ccc(CCNC(=O)CCCn2nc(C)c3c(C)n(-c4ccccc4)nc3c2=O)cc1 | inconclusive: 23.1 µM [cytotoxic, single point] | –
COc1ccc(C(=O)OCC(=O)c2ccccc2)cc1S(=O)(=O)N1CCOCC1 | inconclusive: 0.184 µM [rising, full curve, poor fit] | –
C/C(=N\N1CCN(C2c3ccccc3-c3ccccc32)CC1)c1ccncc1 | inconclusive: 29.1 µM [cytotoxic, single point] | –
CCOc1ccc2nc(N(CCN(C)C)C(=O)c3cc4ccccc4cc3OC)sc2c1 | inconclusive: 29.1 µM [cytotoxic, single point] | –
CCOC(=O)[C@H]1[C@H]2COc3ccc(Cl)cc3[C@@H]2N2C(=O)c3ccc(Cl)cc3NC(=O)[C@@]12C | inconclusive: 29.1 µM [cytotoxic, single point] | –
CCCCCCCCN1C(=O)[C@H](CC(=O)NCCCCc2ccccc2)C[C@@]2(C(=O)OCC)CCCC=C12 | inconclusive: 18.4 µM [cytotoxic, single point] | –
Cc1nc(-c2ccc(Cl)cc2)sc1C(=O)NN | inconclusive: 18.4 µM [cytotoxic, single point] | –
CC(C)n1nc(C(=O)Nc2ccccc2N2CCOCC2)c2ccccc2c1=O | inactive | –
CCOc1ccccc1CNc1ccc(O)cc1 | inconclusive: 29.1 µM [cytotoxic, single point] | –
O=C(NNc1nc2ccc(F)cc2s1)c1cccc(F)c1 | inconclusive: 16.4 µM [cytotoxic, single point] | –
O=C(Nc1nnc(-c2ccco2)o1)c1ccc([N+](=O)[O-])s1 | inconclusive: 18.4 µM [cytotoxic, single point] | –
Cc1cc(C)cc(NC(=O)c2ccc([N+](=O)[O-])o2)c1 | inconclusive: 29.1 µM [cytotoxic, single point] | –
O=C(Nc1ccc(Oc2ccc3ccccc3c2)cc1)c1ccco1 | inconclusive: 16.4 µM [cytotoxic, single point] | –
Cc1cccn2c(=O)c3cc(C#N)c(=NC(=O)c4cccnc4)n(CC4CCCO4)c3nc12 (stereo not drawn) | inconclusive: 6.51 µM [rising, full curve, poor fit] | –
Oc1[nH]c2ccc(Br)cc2c1N=NC(=S)NCC1CCCO1 (stereo not drawn) | inconclusive: 29.1 µM [cytotoxic, single point] | –
Nc1ncccc1OCc1ccc(Cl)c(Cl)c1 | inconclusive: 20.6 µM [cytotoxic, partial curve, poor fit] | –
COc1ccc(Cc2c(-c3ccccc3)nc3ccc(Br)cn23)c(C)c1 | inconclusive: 29.1 µM [cytotoxic, single point] | –
CC(C)(C)c1ccc(/C=C2\SC(=O)N(CCNC(=O)c3cccc(S(=O)(=O)N4CCOCC4)c3)C2=O)cc1 | inconclusive: 9.2 µM [cytotoxic, partial curve] | –
O=C(CN1C(=O)C2(SCC(=O)N2c2cccc(Cl)c2)c2ccccc21)NCc1ccccc1 (stereo not drawn) | inactive | –

Arranged by SMILES length (smallest number first): some entries from above.
SMILES | Potency | activity change, negative = cytotoxic
O=C(NNc1nc2ccc(F)cc2s1)c1cccc(F)c1 | inconclusive: 16.4 µM [cytotoxic, single point] | –
COc1ccc(Cc2c(-c3ccccc3)nc3ccc(Br)cn23)c(C)c1 | inconclusive: 29.1 µM [cytotoxic, single point] | –
CCCCCCCCN1C(=O)[C@H](CC(=O)NCCCCc2ccccc2)C[C@@]2(C(=O)OCC)CCCC=C12 | inconclusive: 18.4 µM [cytotoxic, single point] | –

From PubChem BioAssay AID1347075 (National Center for Advancing Translational Sciences (NCATS), 2019)
